PubChem BioAssay AID1347076 (National Center for Advancing Translational Sciences (NCATS), 2019)
Screen size: about 400,000 compounds; about 13,000 (3.2%) were called active. The shares of active, inactive and inconclusive entries below differ from those in the screen. Calls come from the whole dose curve; as a rule, active = well fitted cell-killing curve with a large enough effect; inconclusive = small, poorly fitted or top-dose-only effect, or effect the other way; inactive = flat fitted curve, though single readings scatter. Potencies beside an inconclusive call are fits to weak or partial responses and may not hold up.

assay: qHTS assay for MDR1-selective chemotherapeutics: Primary screen using the drug-selected MDR subline cells KB-V1; conditions: KB-V1 MDR cells viability, CellTiter-Glo, 72 h; activity change, negative = cytotoxicity: at 46.1 µM (top of the series); note: nearly all actives have a fitted effect of over 60% in size
Outline: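 Cytotoxicity toward P-gp-expressing KB-V1 cells was determined as loss of CellTiter-Glo luminescence after 72 h at 37 degrees C. Compounds were tested in quantitative HTS format across a concentration range, with curves fitted to normalized data.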
% is set by controls: 0 for no effect and ±100 for the full control effect; potency is the fitted concentration of half-maximal effect.

Structure (SMILES) | Potency | activity change, negative = cytotoxicity
CCOc1ccc(C(=O)NCCc2sc(-c3ccc(OC)c(OC)c3)nc2C)cc1 | inconclusive: 5.17 µM [cytotoxic, partial curve, poor fit] | –
O=S(=O)(c1ccccc1)N(F)S(=O)(=O)c1ccccc1 | inconclusive: 29.1 µM [rising, single point] | –
Cc1ccc(C)c(N2CCN(C(=O)c3cc(C)nc4c3c(C)nn4-c3cccc(F)c3)CC2)c1 | inactive | –
CCc1nnc(NC(=O)CSCc2cc(=O)n3cc(C)sc3n2)s1 | inconclusive: 2.59 µM [rising, full curve] | –
Cn1c(=O)[nH]c(=O)c2c1nc(Sc1ncccn1)n2CCCc1ccccc1 | inconclusive: 29.1 µM [cytotoxic, single point] | –
CSc1cccc(NC(=O)COC(=O)c2ccccn2)c1 | inactive | –
CC1CCC(C(C)C)C(OC(=O)Cn2nnc3c(cnn3-c3ccccc3)c2=O)C1 (configuration not stated) | inactive | –
COc1ccc(CCN2C(=O)CC(NC34CC5CC(CC(C5)C3)C4)C2=O)cc1OC (configuration not stated) | inconclusive: 18.4 µM [cytotoxic, partial curve, poor fit] | –
C#CCOCCOCCOCCNc1nc(N2CCN(C(=O)C([C@@H](C)CC)n3cc(C(N)COC(=O)C(F)(F)F)nn3)CC2)nc(N2CCN(C(=O)C([C@@H](C)CC)n3cc(C(N)CC(C)C)nn3)CC2)n1 (some centres not stated) | inconclusive: 10.3 µM [rising, partial curve, poor fit] | –
COC(=O)COc1ccc(C)cc1-n1nc2ccccc2n1 | inconclusive: 13 µM [rising, partial curve] | –
CCC1=NN(C(=O)COc2ccccc2)C(O)(c2ccc(Br)cc2)C1 (configuration not stated) | inactive | –
COc1ccccc1NS(=O)(=O)c1ccc(N/N=C(\C)C(C)C)c([N+](=O)[O-])c1 | active: 11.6 µM | –
O=S1(=O)N=C(N/N=C/c2ccccn2)c2ccccc21 | inconclusive: 23.1 µM [cytotoxic, single point] | –
COC(=O)c1c(NC(=O)Cn2cnc([N+](=O)[O-])n2)sc2c1CCC(C)C2 (configuration not stated) | active: 16.4 µM | –
CCCOc1ccc(C(=O)Nc2cc3c(cc2N2CCOCC2)n(C)c(=O)n3C)cc1 | – | inconclusive: 2.7%
CCN1CCN(c2nc3ccccc3nc2C(C#N)C(=O)OCc2ccccc2)CC1 (configuration not stated) | inconclusive: 18.4 µM [cytotoxic, single point] | –
O=[N+]([O-])c1ccc(O)c(C2CCCCC2)c1 | inconclusive: 29.1 µM [cytotoxic, single point] | –
Cc1nn(CC(=O)O)c(=O)c2cc3cc(F)ccc3n12 | inconclusive: 20.6 µM [rising, partial curve, poor fit] | –
COc1cc2c(C#N)c(N3CCc4ccccc4C3)nc(N)c2c(N)n1 | inconclusive: 11.6 µM [cytotoxic, partial curve, poor fit] | –
CSC1=N/C(=C/c2cccnc2)C(=O)N1Cc1ccccc1 | inactive | –
Cc1nn(C)cc1-c1n[nH]c(=S)n1-c1ccc(F)cc1 | inconclusive: 13 µM [rising, single point] | –
CCCn1c(C(O)c2cccc(OC)c2)nc2ccccc21 (configuration not stated) | inconclusive: 14.6 µM [cytotoxic, partial curve] | –
CCOc1ccccc1NC(=O)CCN(c1ccc(C)cc1)S(=O)(=O)c1ccccc1 | active: 2.59 µM | –
O=C(c1ccccc1Oc1ccc(C(F)(F)F)cc1[N+](=O)[O-])N1CCOCC1 | inactive | –

Structure (SMILES) | Potency | activity change, negative = cytotoxicity
CCOC(=O)C1CCCN(C(=O)Cc2ccc(OC)c(OC)c2)C1 (configuration not stated) | inactive | –
COc1ccccc1OCCCC(=O)NCc1ccco1 | inactive | –
O=C(CSc1nnc(-c2ccccn2)n1Cc1ccco1)c1ccc(Cl)cc1 | active: 9.2 µM | –
Cc1c(Cl)cccc1NC(=O)CC1Sc2ccccc2NC1=O (configuration not stated) | inconclusive: 23.1 µM [cytotoxic, single point] | –
CCOC(=O)N1CCc2c(sc3ncn(C)c(=O)c23)C1 | inconclusive: 23.1 µM [cytotoxic, single point] | –
COc1cc(/C=C2\SC(=Nc3ccccc3)NC2=O)cc(Cl)c1O | inactive | –
CCOC(=O)N1CCN(C(=O)C[C@@H]2C[C@@]3(C(=O)OCC)CCCC=C3N(Cc3ccc(Cl)cc3Cl)C2=O)CC1 | inconclusive: 14.6 µM [cytotoxic, partial curve] | –
COc1ccc(-n2ncc(C(=O)N3CCN(c4ccc(F)cc4)CC3)c2C)cc1 | inconclusive: 11.6 µM [cytotoxic, partial curve] | –
O=c1c2ccccc2nc(/C=C/c2ccccc2)n1CCCO | inconclusive: 20.6 µM [cytotoxic, single point] | –
COc1cc(C)c(-c2cc(C(=O)O)c(C)o2)cc1C(C)C | – | inconclusive: -3.74%
Cc1ccccc1Cn1c2ccccc2c2cnn(CC(=O)NC(C)CCc3ccccc3)c(=O)c21 (configuration not stated) | inactive | –
COc1ccc(C(=O)OCC(=O)N2CCCCCC2)cc1S(=O)(=O)N1CCOCC1 | inactive | –
CCOC(=O)N1CCN(c2ccc(C(=O)c3ccccc3)cc2F)CC1 | inconclusive: 16.4 µM [cytotoxic, partial curve, poor fit] | –
CC(NCC(O)COc1ccc2ccccc2c1)c1ccccc1 (configuration not stated) | inconclusive: 29.1 µM [cytotoxic, single point] | –
CNC(=S)Nc1cc(OC)c(NC(=O)c2ccco2)cc1OC | inactive | –
S=C(NCCc1ccccc1)N1CCn2cccc2C1c1cccnc1 (configuration not stated) | inconclusive: 14.6 µM [cytotoxic, partial curve] | –
COc1ccc(C(=S)N2CCN(c3ccccc3C)CC2)cc1 | inactive | –
Nc1ccc2nc(SCc3ccc([N+](=O)[O-])cc3)sc2c1 | inconclusive: 29.1 µM [cytotoxic, single point] | –
Cn1c(CNC(=O)C(Cc2ccccc2)NC(=O)c2ccccc2F)cc(=O)n(C)c1=O (configuration not stated) | inconclusive: 29.1 µM [rising, single point] | –
Cc1cccc(CCNc2ncnc3onc(-c4ccc(Cl)cc4)c23)c1 | active: 20.6 µM | –
COc1cc(C(C)=O)ccc1Oc1ncnc2c1cnn2-c1ccc(C)c(C)c1 | inactive | –
COC(=O)c1cc(OC)c(OC)cc1NC(=S)N1CCN(C/C=C/c2ccccc2)CC1 | inactive | –
CN1CCN(C(=O)c2cccc(S(=O)(=O)N3CCCC3)c2)CC1 | inconclusive: 29.1 µM [rising, single point] | –
N#CCC(=O)N/N=C/c1cn(Cc2ccc3ccccc3c2)c2ccccc12 | inactive | –

Structure (SMILES) | Potency | activity change, negative = cytotoxicity
CC(C)NC(=O)c1onc(CSc2ccccc2F)c1C(=O)O | inconclusive: 20.6 µM [rising, single point] | –
COC(=O)C1=C(C)NC(C)=C(C(=O)OCCN(C)Cc2ccccc2)C1c1cccc([N+](=O)[O-])c1 (configuration not stated) | active: 18.4 µM | –
COC(=O)c1cc(C(=O)N2CCN(c3ccccc3OC)CC2)cc([N+](=O)[O-])c1 | active: 1.3 µM | –
CCCc1[nH]nc2c1C(c1ccc(O)cc1OCC)C(C#N)=C(N)O2 (configuration not stated) | inconclusive: 0.0082 µM [rising, full curve, poor fit] | –
N/C(=N\N=C\c1cccc(O)c1)c1nonc1N | inconclusive: 29.1 µM [cytotoxic, single point] | –
COc1ccc(S(=O)(=O)N2CCC(n3cnc4ccccc43)CC2)cc1 | inactive | –
C/C(=N\NC(=O)c1cc([N+](=O)[O-])cc([N+](=O)[O-])c1)c1ccco1 | inactive | –
CC(C)OC(=O)C(NC(=O)c1ccccc1)=C1CCCCC1 | active: 20.6 µM | –
CCNc1nc(NC(C)(C)C)nc(SCC(N)=O)n1 | inconclusive: 0.651 µM [rising, full curve, poor fit] | –
O=C(CC1CCCCC1)NCc1ccco1 | inconclusive: 18.4 µM [rising, single point] | –
CCC(C)c1ccc(NC(=O)C2CCCN(c3ncccn3)C2)cc1 (configuration not stated) | active: 7.94 µM | –
Cc1cc(C)c(S(=O)(=O)c2ccccc2C)c(OCCN(C)C)n1 | inactive | –
COc1ccc(C(=O)Nc2ccc3c(c2)OCCO3)cc1 | inconclusive: 20.6 µM [cytotoxic, single point] | –
CN(C)CCCNS(=O)(=O)c1ccc(NC2CCCCCC2)c([N+](=O)[O-])c1 | inconclusive: 6.51 µM [cytotoxic, partial curve] | –
Cc1cc(C(F)(F)F)n2ncc(-c3ccccc3)c2n1 | inconclusive: 29.1 µM [cytotoxic, single point] | –
Fc1ccc2c(c1)C(c1ccc(N3CCOCC3)cc1)=NNC(c1cccs1)=N2 | active: 10.3 µM | –
Cc1nc2ccccc2c(=O)n1NC(=O)c1cccc(Cl)c1 | inactive | –
Cc1cccc2c(=O)cc(C)n(CC(N)=O)c12 | inconclusive: 29.1 µM [cytotoxic, single point] | –
O=C(NC12CC3CC(CC(C3)C1)C2)N1CCN(S(=O)(=O)c2ccc(Cl)cc2)CC1 | inconclusive: 20.6 µM [cytotoxic, single point] | –
Cc1ccc(C)c(-n2c3nc(=O)[nH]c(=O)c-3cc3c(C)nn(-c4ccccc4)c32)c1 | inactive | –
CCN1C(=O)[C@H]2[C@@H](c3ccc(OC)cc3)N[C@]3(CCCN(Cc4ccc(Cl)cc4)C3=O)[C@H]2C1=O | inconclusive: 0.651 µM [cytotoxic, full curve] | –
C[C@H](CO)N1C[C@H](C)[C@@H](CN(C)S(=O)(=O)c2ccccc2)Oc2c(NS(=O)(=O)c3ccccc3)cccc2C1=O | inactive | –
COc1ccc(N(CC(=O)NC2CCCC2)C(=O)c2ccc(C)s2)cc1OC | inconclusive: 18.4 µM [cytotoxic, partial curve] | –
CN(C(=O)c1cccc(NC(=O)Cc2ccc(NC(=O)C3CCCN(C(=O)C4CC4)C3)cc2)c1)C1CCCCC1 (configuration not stated) | inactive | –

Fetched by compound from the list above (two):
Structure (SMILES) | Potency | activity change, negative = cytotoxicity
COC(=O)c1cc(OC)c(OC)cc1NC(=S)N1CCN(C/C=C/c2ccccc2)CC1 | inactive | –
Cc1nn(C)cc1-c1n[nH]c(=S)n1-c1ccc(F)cc1 | inconclusive: 13 µM [rising, single point] | –

Reformatted: results already given.
Structure (SMILES)	Potency	activity change, negative = cytotoxicity
Cc1cccc2c(=O)cc(C)n(CC(N)=O)c12	inconclusive: 29.1 µM [cytotoxic, single point]	–
CCN1C(=O)[C@H]2[C@@H](c3ccc(OC)cc3)N[C@]3(CCCN(Cc4ccc(Cl)cc4)C3=O)[C@H]2C1=O	inconclusive: 0.651 µM [cytotoxic, full curve]	–
